# According to US11304974B2, “Nanosystems comprising silver and antibiotics and their use for the treatment of bacterial infections” (priority 2017, dated 2022):
# At least one compound was matched to its structure with a doubt left.
# How the values were obtained:
# E. coli BLEE + = test: Silver-antibiotics interaction study, MicroScan (Example 4); assay type: cell-based, Escherichia coli; details: subinhibitory colloidal silver (½ or 1/10 MIC)
# Method: (§1) The effect of subinhibitory concentrations of colloidal silver (namely, ½ and 1/10 dilution of the MIC obtained in Example 3) in the presence of different types of antibiotics was tested.
# (§2) For this, an automated equipment MicroScan AutoScan 4 (Siemens) was used, using Gram negative (Becman Coulter NM37) and Gram positive (Becman Coulter PM28) cards.
# (§3) Each of these broths served as inoculum for the cards with antibiotics (for each strain, thus 3 cards were prepared). • Incubating the plates with antibiotics (in presence and absence of silver) at 37° C. for 24 h. • Reading the cards by use of LabPro software, and interpretation of the obtained values of MIC (determine if the silver reduces the initial MCI of each antibiotic).
# Klebsiella BLEE + = test: as above; assay type: cell-based, Klebsiella pneumoniae; details: subinhibitory colloidal silver (½ or 1/10 MIC)
# Method: as §1, §2, §3
smiles,measurement,setting,value
CN(C)[C@@H]1C(O)=C(C(N)=O)C(=O)[C@@]2(O)C(O)=C3C(=O)c4c(O)cccc4[C@@](C)(O)[C@H]3C[C@@H]12 [tetracycline],Effect of silver on the strain's sensitivity to the antibiotic,E. coli BLEE +,becomes sensitive
same,Effect of silver on the strain's sensitivity to the antibiotic,Klebsiella BLEE +,becomes sensitive
